The source of these data is article PMC5707401.

The chains behind the UniProt entries cited, without tags or fusion partners.
UniProt O95376: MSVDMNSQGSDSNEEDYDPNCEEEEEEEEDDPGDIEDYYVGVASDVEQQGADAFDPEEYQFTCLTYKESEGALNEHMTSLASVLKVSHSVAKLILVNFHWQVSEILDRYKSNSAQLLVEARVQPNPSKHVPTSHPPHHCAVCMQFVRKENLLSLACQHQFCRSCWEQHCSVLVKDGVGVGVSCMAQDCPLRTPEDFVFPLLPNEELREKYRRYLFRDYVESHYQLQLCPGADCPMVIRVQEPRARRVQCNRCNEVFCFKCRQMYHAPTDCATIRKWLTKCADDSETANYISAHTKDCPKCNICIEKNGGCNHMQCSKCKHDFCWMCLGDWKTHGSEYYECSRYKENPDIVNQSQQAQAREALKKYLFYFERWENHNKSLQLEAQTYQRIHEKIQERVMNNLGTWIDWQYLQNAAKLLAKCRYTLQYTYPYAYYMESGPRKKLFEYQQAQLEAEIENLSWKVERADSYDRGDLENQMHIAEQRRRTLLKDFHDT
UniProt Q9BXT8: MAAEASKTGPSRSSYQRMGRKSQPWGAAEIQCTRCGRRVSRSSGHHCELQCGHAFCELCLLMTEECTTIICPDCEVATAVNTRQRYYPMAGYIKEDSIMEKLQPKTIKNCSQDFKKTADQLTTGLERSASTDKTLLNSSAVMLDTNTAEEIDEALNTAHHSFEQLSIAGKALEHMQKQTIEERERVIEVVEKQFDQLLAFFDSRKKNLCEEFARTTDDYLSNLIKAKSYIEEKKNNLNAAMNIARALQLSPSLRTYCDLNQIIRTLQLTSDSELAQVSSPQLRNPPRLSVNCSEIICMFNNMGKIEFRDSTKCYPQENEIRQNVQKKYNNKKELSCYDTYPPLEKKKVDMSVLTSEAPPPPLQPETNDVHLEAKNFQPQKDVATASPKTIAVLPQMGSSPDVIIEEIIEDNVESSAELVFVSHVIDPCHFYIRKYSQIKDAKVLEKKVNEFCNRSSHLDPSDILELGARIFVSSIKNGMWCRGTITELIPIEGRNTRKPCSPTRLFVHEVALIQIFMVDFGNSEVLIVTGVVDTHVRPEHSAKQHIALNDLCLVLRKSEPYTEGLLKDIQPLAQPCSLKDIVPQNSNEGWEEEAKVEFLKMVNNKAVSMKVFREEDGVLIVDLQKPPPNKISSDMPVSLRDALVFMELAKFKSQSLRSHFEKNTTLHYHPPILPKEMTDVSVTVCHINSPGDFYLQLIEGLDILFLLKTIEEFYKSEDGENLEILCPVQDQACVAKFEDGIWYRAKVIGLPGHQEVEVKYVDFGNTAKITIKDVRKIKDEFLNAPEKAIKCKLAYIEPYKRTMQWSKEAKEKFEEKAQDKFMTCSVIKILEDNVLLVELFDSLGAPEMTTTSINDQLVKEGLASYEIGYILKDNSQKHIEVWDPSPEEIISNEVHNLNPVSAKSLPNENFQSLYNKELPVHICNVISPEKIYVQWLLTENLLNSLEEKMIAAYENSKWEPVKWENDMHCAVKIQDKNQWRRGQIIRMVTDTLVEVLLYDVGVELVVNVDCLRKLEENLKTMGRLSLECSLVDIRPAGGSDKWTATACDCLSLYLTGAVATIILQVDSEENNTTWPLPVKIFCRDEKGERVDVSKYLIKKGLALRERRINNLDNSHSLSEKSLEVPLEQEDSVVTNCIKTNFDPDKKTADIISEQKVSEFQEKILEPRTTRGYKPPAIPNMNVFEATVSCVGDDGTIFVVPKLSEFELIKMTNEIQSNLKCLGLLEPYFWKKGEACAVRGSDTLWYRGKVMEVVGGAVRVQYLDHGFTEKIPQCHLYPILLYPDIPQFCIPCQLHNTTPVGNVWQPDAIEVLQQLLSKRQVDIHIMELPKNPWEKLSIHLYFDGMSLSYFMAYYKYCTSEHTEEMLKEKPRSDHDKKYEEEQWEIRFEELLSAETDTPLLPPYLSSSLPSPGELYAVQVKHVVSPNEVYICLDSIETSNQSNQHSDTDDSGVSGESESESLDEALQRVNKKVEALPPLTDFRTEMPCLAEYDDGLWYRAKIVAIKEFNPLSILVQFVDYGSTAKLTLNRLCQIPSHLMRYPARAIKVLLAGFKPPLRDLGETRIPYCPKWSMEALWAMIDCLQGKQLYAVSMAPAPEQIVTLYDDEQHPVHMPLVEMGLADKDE
UniProt P47813: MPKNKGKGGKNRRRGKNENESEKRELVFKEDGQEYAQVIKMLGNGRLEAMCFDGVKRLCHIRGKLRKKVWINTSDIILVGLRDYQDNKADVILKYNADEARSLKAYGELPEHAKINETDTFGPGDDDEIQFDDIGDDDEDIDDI
UniProt Q04637: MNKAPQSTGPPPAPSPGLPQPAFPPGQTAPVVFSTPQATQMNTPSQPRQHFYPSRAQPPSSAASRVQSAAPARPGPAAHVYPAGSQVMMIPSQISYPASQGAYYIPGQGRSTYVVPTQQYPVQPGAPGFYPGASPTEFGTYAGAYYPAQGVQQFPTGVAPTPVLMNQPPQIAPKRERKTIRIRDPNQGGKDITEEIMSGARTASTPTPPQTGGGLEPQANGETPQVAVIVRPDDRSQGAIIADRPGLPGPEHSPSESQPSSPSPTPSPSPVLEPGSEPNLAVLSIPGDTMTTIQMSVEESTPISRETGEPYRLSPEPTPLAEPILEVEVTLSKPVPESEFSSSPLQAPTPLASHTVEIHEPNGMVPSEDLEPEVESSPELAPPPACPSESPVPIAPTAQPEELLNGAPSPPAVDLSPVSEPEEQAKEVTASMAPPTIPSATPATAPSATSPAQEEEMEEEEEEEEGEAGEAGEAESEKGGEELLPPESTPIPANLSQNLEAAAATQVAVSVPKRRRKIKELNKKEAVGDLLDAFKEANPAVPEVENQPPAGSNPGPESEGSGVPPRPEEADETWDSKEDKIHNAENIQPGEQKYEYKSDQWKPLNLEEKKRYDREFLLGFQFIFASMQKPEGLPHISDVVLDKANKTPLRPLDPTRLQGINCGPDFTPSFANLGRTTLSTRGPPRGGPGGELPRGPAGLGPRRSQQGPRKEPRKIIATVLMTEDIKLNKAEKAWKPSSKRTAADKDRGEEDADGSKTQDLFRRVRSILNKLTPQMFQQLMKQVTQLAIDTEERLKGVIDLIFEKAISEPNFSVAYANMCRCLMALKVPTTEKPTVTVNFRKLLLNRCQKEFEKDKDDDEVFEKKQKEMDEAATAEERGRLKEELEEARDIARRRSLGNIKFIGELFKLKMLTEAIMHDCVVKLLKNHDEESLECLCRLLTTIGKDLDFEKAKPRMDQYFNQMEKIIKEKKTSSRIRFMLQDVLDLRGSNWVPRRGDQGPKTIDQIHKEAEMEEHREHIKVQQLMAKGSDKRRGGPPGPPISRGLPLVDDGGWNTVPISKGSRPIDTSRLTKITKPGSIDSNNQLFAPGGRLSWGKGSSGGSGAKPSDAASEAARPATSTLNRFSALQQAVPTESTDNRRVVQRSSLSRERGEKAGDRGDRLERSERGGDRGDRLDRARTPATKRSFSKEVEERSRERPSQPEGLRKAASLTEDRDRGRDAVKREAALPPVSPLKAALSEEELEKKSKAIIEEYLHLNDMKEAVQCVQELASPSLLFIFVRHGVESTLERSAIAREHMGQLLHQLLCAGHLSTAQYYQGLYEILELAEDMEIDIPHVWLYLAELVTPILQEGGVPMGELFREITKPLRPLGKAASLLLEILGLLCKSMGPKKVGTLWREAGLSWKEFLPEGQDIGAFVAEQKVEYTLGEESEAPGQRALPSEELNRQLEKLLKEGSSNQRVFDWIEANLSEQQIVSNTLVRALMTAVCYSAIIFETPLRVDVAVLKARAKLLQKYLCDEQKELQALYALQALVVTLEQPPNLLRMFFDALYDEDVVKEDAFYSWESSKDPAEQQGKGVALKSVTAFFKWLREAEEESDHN
UniProt O15160: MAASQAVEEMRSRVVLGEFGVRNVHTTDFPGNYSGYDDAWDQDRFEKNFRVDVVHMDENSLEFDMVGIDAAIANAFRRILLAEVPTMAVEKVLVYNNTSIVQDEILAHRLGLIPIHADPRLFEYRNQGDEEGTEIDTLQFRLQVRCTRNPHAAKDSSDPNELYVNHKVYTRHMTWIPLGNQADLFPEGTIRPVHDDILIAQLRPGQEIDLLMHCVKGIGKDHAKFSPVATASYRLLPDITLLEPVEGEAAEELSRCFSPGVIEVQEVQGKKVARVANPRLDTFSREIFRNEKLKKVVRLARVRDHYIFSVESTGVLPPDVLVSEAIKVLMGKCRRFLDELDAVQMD
UniProt O14802: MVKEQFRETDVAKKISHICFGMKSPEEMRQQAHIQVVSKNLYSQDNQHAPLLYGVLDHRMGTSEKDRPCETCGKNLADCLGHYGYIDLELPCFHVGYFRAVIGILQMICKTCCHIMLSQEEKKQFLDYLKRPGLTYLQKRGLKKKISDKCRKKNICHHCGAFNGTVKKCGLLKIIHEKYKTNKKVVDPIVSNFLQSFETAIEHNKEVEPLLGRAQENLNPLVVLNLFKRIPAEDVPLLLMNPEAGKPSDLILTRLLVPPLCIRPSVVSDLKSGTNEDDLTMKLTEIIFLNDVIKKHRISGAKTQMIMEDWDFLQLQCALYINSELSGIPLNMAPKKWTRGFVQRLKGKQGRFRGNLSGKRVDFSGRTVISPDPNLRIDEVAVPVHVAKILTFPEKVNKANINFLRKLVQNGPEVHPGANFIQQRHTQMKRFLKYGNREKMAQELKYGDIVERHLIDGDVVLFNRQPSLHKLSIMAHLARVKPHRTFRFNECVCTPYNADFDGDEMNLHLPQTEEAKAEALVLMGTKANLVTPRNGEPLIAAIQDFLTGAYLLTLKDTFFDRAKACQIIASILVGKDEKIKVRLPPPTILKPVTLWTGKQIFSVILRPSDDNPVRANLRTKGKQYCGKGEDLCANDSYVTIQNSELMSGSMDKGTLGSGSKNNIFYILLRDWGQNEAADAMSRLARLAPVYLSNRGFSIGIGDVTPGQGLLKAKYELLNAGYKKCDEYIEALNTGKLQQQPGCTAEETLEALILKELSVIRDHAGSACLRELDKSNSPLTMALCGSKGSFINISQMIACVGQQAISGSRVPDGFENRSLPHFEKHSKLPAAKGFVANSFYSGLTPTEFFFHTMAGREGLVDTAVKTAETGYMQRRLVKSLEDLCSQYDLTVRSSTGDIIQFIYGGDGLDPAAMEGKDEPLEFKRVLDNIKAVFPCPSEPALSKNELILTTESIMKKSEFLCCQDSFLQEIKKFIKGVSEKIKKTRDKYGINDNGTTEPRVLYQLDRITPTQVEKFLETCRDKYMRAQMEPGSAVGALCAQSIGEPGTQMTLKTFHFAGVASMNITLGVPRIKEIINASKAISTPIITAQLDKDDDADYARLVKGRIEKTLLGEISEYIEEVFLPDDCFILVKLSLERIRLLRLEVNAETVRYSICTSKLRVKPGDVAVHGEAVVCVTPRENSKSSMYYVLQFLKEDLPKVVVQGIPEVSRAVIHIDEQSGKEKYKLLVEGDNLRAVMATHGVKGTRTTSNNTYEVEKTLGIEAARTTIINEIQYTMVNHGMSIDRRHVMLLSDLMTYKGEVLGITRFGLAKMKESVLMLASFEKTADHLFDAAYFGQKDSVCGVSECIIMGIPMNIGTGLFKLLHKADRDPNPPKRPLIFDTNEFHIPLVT
UniProt Q5VTR2: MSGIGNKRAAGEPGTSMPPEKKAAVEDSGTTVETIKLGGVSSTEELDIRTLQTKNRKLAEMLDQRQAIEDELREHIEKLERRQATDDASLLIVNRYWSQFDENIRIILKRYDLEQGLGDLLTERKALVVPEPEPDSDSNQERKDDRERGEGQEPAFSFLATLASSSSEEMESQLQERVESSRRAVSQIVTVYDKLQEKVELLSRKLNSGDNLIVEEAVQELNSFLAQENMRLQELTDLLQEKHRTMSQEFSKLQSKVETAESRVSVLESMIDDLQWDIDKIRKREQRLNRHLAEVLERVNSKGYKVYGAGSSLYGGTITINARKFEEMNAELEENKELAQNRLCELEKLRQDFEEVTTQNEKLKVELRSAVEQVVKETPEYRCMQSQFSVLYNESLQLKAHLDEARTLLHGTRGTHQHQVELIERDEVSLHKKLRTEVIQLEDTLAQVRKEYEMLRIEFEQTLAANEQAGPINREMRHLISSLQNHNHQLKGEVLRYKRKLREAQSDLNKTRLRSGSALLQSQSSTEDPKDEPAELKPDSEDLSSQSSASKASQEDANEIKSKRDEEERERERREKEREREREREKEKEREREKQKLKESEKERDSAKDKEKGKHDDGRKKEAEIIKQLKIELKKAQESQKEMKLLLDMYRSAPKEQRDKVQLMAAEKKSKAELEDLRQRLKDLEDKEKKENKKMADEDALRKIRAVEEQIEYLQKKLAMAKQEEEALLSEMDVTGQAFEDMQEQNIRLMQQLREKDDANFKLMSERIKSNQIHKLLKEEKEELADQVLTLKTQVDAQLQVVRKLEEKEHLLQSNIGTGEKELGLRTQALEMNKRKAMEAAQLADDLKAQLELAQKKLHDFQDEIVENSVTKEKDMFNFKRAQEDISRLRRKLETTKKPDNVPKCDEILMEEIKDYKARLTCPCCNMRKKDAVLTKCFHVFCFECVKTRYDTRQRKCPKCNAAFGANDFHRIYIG

What all share (assay): affinity purification with mass spectrometry; adapted SILAC-based AP: heavy-labelled HEK293T cells expressing the GFP-tagged RBUL mixed in equal amounts with light-labelled cells expressing GFP before lysis in mRIPA buffer; GFP-trap agarose beads, 1 h at 4 °C; on-bead trypsin digest, LC-MS/MS; putative interactors at mean z-score ≥ 2
In one assay the target is GFP-tagged ARIH2 (human) (UniProt O95376).
The next assay concerns the target T1, GFP-tagged MEX3B (human) (UniProt Q6ZN04).
T1 sequence: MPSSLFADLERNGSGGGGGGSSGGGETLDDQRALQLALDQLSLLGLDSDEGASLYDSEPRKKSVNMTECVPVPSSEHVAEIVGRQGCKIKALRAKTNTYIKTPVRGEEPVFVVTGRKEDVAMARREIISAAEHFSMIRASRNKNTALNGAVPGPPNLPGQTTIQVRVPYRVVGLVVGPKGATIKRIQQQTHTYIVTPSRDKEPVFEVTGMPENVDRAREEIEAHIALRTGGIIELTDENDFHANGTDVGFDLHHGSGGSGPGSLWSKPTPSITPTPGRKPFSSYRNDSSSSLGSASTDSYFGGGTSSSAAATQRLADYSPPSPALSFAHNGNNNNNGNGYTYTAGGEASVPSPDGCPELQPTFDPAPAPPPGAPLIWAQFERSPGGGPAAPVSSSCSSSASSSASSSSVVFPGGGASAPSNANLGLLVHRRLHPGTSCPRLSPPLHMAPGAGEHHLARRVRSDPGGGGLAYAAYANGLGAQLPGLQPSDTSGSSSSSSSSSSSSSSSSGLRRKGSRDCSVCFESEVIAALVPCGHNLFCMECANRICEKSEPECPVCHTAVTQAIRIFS

The target in assay [1] is GFP-tagged PRPF19 (human) (UniProt Q9UMS4).
For a further assay, the target named is GFP-tagged RNF17 (human) (UniProt Q9BXT8).
Another assay concerns the target T2, GFP-tagged MKRN1 (human) (UniProt Q9UHC7).
T2 sequence: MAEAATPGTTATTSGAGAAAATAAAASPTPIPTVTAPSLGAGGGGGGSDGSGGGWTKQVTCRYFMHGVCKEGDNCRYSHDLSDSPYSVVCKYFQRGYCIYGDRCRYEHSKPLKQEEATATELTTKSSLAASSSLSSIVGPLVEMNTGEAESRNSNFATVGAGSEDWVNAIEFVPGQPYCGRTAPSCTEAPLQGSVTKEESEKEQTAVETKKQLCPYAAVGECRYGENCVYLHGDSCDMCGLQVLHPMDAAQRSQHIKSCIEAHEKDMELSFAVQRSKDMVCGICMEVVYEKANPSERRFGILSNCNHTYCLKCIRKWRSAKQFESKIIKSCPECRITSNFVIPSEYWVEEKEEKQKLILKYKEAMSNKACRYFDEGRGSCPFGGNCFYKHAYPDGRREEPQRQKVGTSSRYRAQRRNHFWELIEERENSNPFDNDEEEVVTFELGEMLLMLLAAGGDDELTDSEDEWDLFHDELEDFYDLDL

The target of another assay is T3, GFP-tagged MKRN2 (human) (UniProt Q9H000).
T3 sequence: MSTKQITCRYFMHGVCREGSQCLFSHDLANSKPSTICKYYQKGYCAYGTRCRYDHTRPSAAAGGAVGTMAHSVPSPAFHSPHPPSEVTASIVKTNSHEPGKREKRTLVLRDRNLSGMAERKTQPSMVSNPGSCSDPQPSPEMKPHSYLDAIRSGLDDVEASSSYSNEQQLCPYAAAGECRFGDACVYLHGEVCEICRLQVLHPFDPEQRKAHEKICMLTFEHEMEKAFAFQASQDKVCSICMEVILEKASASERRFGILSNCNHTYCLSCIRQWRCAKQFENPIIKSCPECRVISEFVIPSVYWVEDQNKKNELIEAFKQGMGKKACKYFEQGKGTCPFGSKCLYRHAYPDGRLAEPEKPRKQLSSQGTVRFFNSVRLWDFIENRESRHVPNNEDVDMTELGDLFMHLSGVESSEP

For assay [2], the target named is T4, GFP-tagged PRPF19 (human), Q9UMS4.
T4 chain: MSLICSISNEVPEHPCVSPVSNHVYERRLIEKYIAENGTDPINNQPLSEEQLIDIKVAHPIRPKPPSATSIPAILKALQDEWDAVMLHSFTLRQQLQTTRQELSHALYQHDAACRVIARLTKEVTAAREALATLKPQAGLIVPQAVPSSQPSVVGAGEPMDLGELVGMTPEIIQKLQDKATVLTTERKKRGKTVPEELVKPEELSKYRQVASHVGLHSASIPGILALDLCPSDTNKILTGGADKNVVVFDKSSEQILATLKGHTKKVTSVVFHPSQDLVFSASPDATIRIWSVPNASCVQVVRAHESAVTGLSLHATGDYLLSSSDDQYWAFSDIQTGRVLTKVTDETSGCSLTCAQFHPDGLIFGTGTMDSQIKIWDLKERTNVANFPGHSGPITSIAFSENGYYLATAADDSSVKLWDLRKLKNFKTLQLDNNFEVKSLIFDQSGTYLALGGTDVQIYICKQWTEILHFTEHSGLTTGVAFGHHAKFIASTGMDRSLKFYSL
The conditions noted are these: remark: other sources report otherwise.

Results are given in words; binding and its absence hold for the method and conditions named. Binding seen in cells or lysates may run through a third protein. Here binding means that the protein was enriched with, or labelled near, the bait; the list need not be complete. For some assays here: No binding means not detected with the bait. For some assays here: Sequences can lack the tags named with a protein.

Consider EIF1AX (from UniProt P47813 1-144), for which the binding entry with GFP-tagged ARIH2 (human) is “binds”. In the case of EIF4G1 (from UniProt Q04637 1-1599), the binding entry (with GFP-tagged MEX3B (human); in assay [1]) was “binds” each time.

As for HUWE1 (from UniProt Q7Z6Z7 1-4374), the binding result (with GFP-tagged MEX3B (human); in assay [1]) was “binds” in each case.

For the molecule POLR1A (from UniProt O95602 1-1720), the binding result in the assay with GFP-tagged MEX3B (human) was “binds”. Still for that read-out and setting: the same measure for POLR1C (from UniProt O15160 1-346): “binds”.

In the case of POLR3A (from UniProt O14802 1-1390), the binding entry (in the assay with GFP-tagged ARIH2 (human); with GFP-tagged MEX3B (human); in assay [1]) was “binds” each time. For the molecule RNF20 (from UniProt Q5VTR2 1-975), the binding entry in the assay with GFP-tagged ARIH2 (human) was “binds”. In the case of RPLP2 (from UniProt P05387 1-115), the binding entry in the assay with GFP-tagged RNF17 (human) is reported as “binds”. With TNRC6A (from UniProt Q8NDV7 1-1962), the binding result with GFP-tagged MEX3B (human) is “binds”. Consider “ubiquitin-dependent co-chaperone VCP (from UniProt P55072 1-806)”, for which the binding result (with GFP-tagged ARIH2 (human); with GFP-tagged MEX3B (human); in the assay with GFP-tagged MKRN1 (human); with GFP-tagged MKRN2 (human); in assay [1]; with GFP-tagged RNF17 (human)) was “binds” in each case.

B1: transcriptional repressor ZGPAT (protein, UniProt Q8N5A5 1-531)
chain: MDEESLESALQTYRAQLQQVELALGAGLDSSEQADLRQLQGDLKELIELTEASLVSVRKSSLLAALDEERPGRQEDAEYQAFREAITEAVEAPAAARGSGSETVPKAEAGPESAAGGQEEEEGEDEEELSGTKVSAPYYSSWGTLEYHNAMVVGTEEAEDGSAGVRVLYLYPTHKSLKPCPFFLEGKCRFKENCRFSHGQVVSLDELRPFQDPDLSSLQAGSACLAKHQDGLWHAARITDVDNGYYTVKFDSLLLREAVVEGDGILPPLRTEATESDSDSDGTGDSSYARVVGSDAVDSAQSSALCPSLAVVGSDAVDSGTCSSAFAGWEVHTRGIGSRLLTKMGYEFGKGLGRHAEGRVEPIHAVVLPRGKSLDQCVETLQKQTRVGKAGTNKPPRCRGRGARPGGRPAPRNVFDFLNEKLQGQAPGALEAGAAPAGRRSKDMYHASKSAKRALSLRLFQTEEKIERTQRDIRSIQEALARNAGRHSVASAQLQEKLAGAQRQLGQLRAQEAGLQQEQRKADTHKKMTEF
For B1, the binding result in the assay with GFP-tagged MEX3B (human) is on record as “binds”.

B2: PRPF3, O43395 1-683 (protein)
chain: MALSKRELDELKPWIEKTVKRVLGFSEPTVVTAALNCVGKGMDKKKAADHLKPFLDDSTLRFVDKLFEAVEEGRSSRHSKSSSDRSRKRELKEVFGDDSEISKESSGVKKRRIPRFEEVEEEPEVIPGPPSESPGMLTKLQIKQMMEAATRQIEERKKQLSFISPPTPQPKTPSSSQPERLPIGNTIQPSQAATFMNDAIEKARKAAELQARIQAQLALKPGLIGNANMVGLANLHAMGIAPPKVELKDQTKPTPLILDEQGRTVDATGKEIELTHRMPTLKANIRAVKREQFKQQLKEKPSEDMESNTFFDPRVSIAPSQRQRRTFKFHDKGKFEKIAQRLRTKAQLEKLQAEISQAARKTGIHTSTRLALIAPKKELKEGDIPEIEWWDSYIIPNGFDLTEENPKREDYFGITNLVEHPAQLNPPVDNDTPVTLGVYLTKKEQKKLRRQTRREAQKELQEKVRLGLMPPPEPKVRISNLMRVLGTEAVQDPTKVEAHVRAQMAKRQKAHEEANAARKLTAEQRKVKKIKKLKEDISQGVHISVYRVRNLSNPAKKFKIEANAGQLYLTGVVVLHKDVNVVVVEGGPKAQKKFKRLMLHRIKWDEQTSNTKGDDDEESDEEAVKKTNKCVLVWEGTAKDRSFGEMKFKQCPTENMAREHFKKHGAEHYWDLALSESVLESTD
For B2, the binding result in assay [2] was “no binding”.

B3: MID1 (protein, UniProt O15344 1-667)
chain: METLESELTCPICLELFEDPLLLPCAHSLCFNCAHRILVSHCATNESVESITAFQCPTCRHVITLSQRGLDGLKRNVTLQNIIDRFQKASVSGPNSPSETRRERAFDANTMTSAEKVLCQFCDQDPAQDAVKTCVTCEVSYCDECLKATHPNKKPFTGHRLIEPIPDSHIRGLMCLEHEDEKVNMYCVTDDQLICALCKLVGRHRDHQVAALSERYDKLKQNLESNLTNLIKRNTELETLLAKLIQTCQHVEVNASRQEAKLTEECDLLIEIIQQRRQIIGTKIKEGKVMRLRKLAQQIANCKQCIERSASLISQAEHSLKENDHARFLQTAKNITERVSMATASSQVLIPEINLNDTFDTFALDFSREKKLLECLDYLTAPNPPTIREELCTASYDTITVHWTSDDEFSVVSYELQYTIFTGQANVVSLCNSADSWMIVPNIKQNHYTVHGLQSGTKYIFMVKAINQAGSRSSEPGKLKTNSQPFKLDPKSAHRKLKVSHDNLTVERDESSSKKSHTPERFTSQGSYGVAGNVFIDSGRHYWEVVISGSTWYAIGLAYKSAPKHEWIGKNSASWALCRCNNNWVVRHNSKEIPIEPAPHLRRVGILLDYDNGSIAFYDALNSIHLYTFDVAFAQPVCPTFTVWNKCLTIITGLPIPDHLDCTEQLP
For B3, in the assay with GFP-tagged ARIH2 (human), the binding result is given as “binds”.

B4: SNRNPD40 (protein, UniProt Q96DI7 1-357)
chain: MIEQQKRKGPELPLVPVKRQRHELLLGAGSGPGAGQQQATPGALLQAGPPRCSSLQAPIMLLSGHEGEVYCCKFHPNGSTLASAGFDRLILLWNVYGDCDNYATLKGHSGAVMELHYNTDGSMLFSASTDKTVAVWDSETGERVKRLKGHTSFVNSCYPARRGPQLVCTGSDDGTVKLWDIRKKAAIQTFQNTYQVLAVTFNDTSDQIISGGIDNDIKVWDLRQNKLTYTMRGHADSVTGLSLSSEGSYLLSNAMDNTVRVWDVRPFAPKERCVKIFQGNVHNFEKNLLRCSWSPDGSKIAAGSADRFVYVWDTTSRRILYKLPGHAGSINEVAFHPDEPIIISASSDKRLYMGEIQ
As for B4, the binding entry in assay [1] is on record as “binds”.
